# Laboratory results reported in article doi:10.1101/2022.10.06.511211.
# What was measured:
# Experiment in all cases: co-IP
# [1] = molecular target: T1, SYNGAP1 C1-Trunc (Δ a.a. 730-1343) (human) (UniProt Q96PV0)
# T1 sequence: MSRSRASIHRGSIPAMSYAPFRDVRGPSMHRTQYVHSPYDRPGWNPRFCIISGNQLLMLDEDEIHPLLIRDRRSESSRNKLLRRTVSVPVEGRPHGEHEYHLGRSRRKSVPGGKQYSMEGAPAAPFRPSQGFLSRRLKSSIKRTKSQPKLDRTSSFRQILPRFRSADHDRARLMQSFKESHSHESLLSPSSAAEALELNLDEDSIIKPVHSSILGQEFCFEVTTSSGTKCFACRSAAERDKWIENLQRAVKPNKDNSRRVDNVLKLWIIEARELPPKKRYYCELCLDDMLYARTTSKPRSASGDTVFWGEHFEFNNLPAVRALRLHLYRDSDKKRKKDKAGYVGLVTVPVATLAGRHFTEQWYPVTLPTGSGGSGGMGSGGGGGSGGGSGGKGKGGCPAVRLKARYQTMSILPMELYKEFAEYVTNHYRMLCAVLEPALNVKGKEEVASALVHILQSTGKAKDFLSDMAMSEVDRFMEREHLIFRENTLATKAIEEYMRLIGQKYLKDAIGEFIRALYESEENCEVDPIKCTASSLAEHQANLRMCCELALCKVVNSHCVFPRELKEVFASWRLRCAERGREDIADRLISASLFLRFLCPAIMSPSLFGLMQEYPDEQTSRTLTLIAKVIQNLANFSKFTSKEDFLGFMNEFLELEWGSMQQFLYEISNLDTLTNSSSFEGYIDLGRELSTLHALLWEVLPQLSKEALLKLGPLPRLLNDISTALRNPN
# [2] = molecular target: T2, SYNGAP1 C2-Trunc (Δ a.a. 848-1343) (human) (UniProt Q96PV0)
# T2 sequence: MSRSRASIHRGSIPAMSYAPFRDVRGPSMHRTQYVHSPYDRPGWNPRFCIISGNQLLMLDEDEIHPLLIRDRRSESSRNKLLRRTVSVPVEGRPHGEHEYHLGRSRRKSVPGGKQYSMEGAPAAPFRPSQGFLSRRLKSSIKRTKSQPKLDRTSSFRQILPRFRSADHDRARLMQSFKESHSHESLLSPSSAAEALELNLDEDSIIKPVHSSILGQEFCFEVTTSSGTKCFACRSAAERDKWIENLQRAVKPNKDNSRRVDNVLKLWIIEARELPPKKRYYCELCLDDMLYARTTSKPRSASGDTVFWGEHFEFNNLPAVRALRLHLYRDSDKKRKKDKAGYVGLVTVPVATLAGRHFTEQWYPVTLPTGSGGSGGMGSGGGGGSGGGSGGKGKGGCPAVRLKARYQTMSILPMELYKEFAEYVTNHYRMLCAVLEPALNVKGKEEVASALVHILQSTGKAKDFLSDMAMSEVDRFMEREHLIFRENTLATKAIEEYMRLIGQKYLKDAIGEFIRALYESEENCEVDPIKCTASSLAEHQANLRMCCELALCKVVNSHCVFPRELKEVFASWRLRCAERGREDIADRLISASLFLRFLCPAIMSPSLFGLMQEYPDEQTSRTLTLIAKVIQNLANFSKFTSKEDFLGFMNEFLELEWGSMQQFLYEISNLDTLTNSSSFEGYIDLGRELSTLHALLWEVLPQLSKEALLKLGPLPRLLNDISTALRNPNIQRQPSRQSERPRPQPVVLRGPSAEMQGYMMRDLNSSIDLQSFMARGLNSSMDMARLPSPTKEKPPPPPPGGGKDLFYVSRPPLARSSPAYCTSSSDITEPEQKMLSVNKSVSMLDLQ
# [3] = molecular target: T3, SYNGAP1 C3-Trunc (Δ a.a. 1181-1343) (human) (UniProt Q96PV0)
# T3 sequence: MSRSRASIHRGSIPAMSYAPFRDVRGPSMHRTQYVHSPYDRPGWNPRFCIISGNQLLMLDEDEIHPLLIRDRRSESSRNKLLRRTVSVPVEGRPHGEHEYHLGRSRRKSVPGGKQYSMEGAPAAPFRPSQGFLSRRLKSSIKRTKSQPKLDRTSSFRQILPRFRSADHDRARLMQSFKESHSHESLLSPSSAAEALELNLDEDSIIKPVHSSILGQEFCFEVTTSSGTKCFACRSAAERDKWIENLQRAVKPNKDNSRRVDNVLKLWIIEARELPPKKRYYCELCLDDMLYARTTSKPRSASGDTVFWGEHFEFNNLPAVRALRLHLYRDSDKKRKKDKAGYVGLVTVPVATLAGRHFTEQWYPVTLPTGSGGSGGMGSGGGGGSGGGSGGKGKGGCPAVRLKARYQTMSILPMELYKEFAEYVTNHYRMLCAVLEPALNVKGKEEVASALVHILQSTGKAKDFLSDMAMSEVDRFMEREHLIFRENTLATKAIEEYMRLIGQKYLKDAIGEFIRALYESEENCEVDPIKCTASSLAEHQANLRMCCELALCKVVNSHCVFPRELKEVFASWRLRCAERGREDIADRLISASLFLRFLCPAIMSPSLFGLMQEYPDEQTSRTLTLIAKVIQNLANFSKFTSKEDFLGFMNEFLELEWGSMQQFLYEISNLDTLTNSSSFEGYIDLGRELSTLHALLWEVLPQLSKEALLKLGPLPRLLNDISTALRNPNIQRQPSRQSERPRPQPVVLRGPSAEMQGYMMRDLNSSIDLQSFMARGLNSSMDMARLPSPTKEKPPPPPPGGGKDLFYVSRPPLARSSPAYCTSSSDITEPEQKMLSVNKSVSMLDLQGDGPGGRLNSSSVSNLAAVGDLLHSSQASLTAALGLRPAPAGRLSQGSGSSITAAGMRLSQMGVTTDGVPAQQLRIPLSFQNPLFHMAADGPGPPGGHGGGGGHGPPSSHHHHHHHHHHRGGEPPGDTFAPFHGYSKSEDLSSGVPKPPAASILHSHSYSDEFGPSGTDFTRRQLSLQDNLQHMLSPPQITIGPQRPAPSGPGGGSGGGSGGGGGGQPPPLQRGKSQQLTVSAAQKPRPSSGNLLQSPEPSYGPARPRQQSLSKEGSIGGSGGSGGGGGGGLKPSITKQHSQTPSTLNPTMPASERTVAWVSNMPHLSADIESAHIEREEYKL
# [4] = molecular target: T4, SYNGAP1 N-Trunc (Δ a.a. 2-361) (human) (UniProt Q96PV0)
# T4 sequence: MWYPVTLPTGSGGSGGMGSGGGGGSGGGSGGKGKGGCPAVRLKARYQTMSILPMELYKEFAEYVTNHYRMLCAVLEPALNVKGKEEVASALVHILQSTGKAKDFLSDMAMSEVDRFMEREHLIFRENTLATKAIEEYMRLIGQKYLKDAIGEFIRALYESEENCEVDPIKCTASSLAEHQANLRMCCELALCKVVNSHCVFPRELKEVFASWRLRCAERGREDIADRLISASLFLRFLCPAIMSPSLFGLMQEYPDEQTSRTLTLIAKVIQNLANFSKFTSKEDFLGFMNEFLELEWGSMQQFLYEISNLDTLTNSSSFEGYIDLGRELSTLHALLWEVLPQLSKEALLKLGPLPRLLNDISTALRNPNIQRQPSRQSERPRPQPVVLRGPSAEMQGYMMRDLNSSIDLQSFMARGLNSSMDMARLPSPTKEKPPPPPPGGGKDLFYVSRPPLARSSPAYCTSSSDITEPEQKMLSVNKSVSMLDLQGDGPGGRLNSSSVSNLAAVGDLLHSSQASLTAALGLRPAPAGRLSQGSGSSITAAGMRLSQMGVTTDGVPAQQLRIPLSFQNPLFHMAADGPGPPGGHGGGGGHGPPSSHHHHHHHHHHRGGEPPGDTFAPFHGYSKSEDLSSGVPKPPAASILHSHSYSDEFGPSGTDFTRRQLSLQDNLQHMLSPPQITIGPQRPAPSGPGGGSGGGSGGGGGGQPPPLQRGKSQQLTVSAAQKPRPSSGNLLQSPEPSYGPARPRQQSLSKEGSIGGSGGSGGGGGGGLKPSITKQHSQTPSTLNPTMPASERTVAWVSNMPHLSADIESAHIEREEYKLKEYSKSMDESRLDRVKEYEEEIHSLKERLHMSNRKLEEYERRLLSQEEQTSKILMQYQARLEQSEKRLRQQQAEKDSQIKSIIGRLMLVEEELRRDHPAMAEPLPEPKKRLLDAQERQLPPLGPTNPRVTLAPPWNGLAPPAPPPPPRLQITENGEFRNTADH
# human SYNGAP1 (human) = molecular target: T5, human SYNGAP1 (human) (UniProt Q96PV0)
# T5 sequence: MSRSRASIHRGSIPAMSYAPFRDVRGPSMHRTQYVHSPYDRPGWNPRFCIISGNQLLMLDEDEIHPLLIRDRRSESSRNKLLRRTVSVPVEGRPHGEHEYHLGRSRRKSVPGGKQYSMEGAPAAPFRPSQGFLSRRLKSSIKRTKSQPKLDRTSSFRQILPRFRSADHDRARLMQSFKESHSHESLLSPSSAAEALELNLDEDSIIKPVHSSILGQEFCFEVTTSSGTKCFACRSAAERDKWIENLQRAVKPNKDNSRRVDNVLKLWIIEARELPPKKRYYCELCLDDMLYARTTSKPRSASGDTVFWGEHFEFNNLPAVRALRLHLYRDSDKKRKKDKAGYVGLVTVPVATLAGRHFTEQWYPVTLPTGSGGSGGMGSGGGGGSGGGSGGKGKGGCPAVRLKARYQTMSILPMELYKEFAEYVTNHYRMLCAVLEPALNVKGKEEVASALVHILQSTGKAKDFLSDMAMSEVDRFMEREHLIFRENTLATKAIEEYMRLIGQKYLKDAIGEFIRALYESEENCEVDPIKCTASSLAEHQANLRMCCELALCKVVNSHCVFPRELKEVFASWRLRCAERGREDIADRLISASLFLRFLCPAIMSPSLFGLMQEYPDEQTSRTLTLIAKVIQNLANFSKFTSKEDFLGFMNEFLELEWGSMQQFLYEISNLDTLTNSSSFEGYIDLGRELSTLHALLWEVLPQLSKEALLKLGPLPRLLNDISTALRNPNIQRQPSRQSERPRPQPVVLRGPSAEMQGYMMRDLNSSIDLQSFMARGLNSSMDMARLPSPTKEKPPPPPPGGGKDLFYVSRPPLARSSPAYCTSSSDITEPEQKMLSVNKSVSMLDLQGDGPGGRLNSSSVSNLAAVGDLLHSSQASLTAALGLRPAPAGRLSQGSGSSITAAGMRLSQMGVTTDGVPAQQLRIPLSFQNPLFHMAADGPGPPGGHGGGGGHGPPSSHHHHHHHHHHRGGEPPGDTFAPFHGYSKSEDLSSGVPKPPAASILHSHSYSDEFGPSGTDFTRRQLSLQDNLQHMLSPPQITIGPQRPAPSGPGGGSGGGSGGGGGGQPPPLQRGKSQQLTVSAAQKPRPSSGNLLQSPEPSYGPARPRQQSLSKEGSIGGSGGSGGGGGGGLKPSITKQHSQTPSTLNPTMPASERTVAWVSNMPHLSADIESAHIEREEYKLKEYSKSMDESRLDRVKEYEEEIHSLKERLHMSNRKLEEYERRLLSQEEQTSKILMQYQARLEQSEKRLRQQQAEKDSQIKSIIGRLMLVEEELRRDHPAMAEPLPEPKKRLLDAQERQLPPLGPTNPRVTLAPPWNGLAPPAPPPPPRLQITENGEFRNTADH
substance,measurement,setting,value
human ANKS1B,binding,[1],no binding
same,binding,[2],no binding
same,binding,[3],binds
same,binding,[4],binds
same,binding,human SYNGAP1 (human),binds

# Results are given in words; binding and its absence hold for the method and conditions named. In cells and extracts the contact can be indirect. For some assays here: Binding calls can cover weak binding; strength is not graded here.
